Consider 5 molecules from US20170296524A1.

Results are given in words; binding and its absence hold for the method and conditions named. For some of these results: Binding seen in cells or lysates may run through a third protein. Some binding calls cover weakened binding; strength is not graded here. Where a sequence is shown, tags or fusion partners need not be part of it.

The target of assay [1] is Cereblon (CRBN), human, wild type, without tag (endogenous or expressed from plasmid) (human) (UniProt Q96SW2). Nature of the assay: GST pull-down with the C-terminal fragment from lysates of CRBN-/- HEK 293T cells re-expressing CRBN.
Assay [2] shares this target. The assay can be described thus: GST pull-down in MM1.S whole cell lysate, Western blot for CRBN.
For assay [3] the target is unchanged. Nature of the assay: GST pull-down of fragments in MM1S whole cell extracts, immunoblot. (In general: In western blotting, separated proteins are transferred to a membrane and probed.)
The target of assay [4] is T1, Cereblon (CRBN), human, wild type, without tag (endogenous or expressed from plasmid) (human), Q96SW2.
T1 chain: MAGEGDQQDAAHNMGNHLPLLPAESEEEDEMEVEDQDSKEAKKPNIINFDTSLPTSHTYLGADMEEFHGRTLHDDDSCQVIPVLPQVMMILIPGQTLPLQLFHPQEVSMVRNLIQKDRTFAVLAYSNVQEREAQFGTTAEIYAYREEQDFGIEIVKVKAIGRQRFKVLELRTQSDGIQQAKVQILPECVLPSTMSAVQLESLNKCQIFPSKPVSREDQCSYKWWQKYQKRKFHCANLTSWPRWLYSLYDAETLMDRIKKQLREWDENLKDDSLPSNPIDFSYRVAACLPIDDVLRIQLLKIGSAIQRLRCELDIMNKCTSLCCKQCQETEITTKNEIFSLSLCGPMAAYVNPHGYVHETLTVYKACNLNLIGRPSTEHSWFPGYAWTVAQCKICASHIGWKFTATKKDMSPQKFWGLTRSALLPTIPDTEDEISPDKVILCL
The assay can be described thus: FLAG immunoprecipitation from HEK293T cells, immunoblot (FIG. 13G). The settings on record: remark: other sources report otherwise.

In assay [5] the target is T1, Cereblon (CRBN), human, wild type, …. Nature of the assay: heading of FIG. 16: FLAG immunoprecipitation from HEK293T cells (16A) and GST-CRBN pull-down (16B). Particulars: remark: other sources report otherwise.
Assay [6] addresses T2, MCT1 (monocarboxylate transporter 1), endogenous (human), P53985.
T2 chain: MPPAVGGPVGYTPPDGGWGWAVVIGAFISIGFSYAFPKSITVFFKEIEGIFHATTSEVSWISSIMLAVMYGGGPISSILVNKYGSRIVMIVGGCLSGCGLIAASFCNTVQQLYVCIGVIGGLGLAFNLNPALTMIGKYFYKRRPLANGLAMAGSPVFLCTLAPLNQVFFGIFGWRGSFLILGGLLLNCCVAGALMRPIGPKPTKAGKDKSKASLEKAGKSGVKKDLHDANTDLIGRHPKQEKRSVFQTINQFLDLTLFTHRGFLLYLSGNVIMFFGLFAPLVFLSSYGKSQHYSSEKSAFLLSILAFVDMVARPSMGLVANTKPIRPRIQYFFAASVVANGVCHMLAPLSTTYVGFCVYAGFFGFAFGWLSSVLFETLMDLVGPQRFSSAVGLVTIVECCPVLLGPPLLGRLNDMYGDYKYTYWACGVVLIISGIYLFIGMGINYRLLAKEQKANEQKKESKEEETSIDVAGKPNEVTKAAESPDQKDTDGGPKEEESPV
The assay can be described thus: co-immunoprecipitation. Particulars: remark: other sources report otherwise.

Assay [7] has as its target T2, MCT1 (monocarboxylate transporter 1), …. Nature of the assay: immunoprecipitation with CRBN-specific antibody from HEK 293T lysate, Western blot. The settings on record: remark: other sources report otherwise.
Assay [8] shares this target. Nature of the assay: co-immunoprecipitation and pull-downs (heading of FIG. 2). Particulars: remark: other sources report otherwise.
Assay [9] addresses T3, in vitro-translated, 35S-labeled MCT1 (human), P53985.
T3 chain: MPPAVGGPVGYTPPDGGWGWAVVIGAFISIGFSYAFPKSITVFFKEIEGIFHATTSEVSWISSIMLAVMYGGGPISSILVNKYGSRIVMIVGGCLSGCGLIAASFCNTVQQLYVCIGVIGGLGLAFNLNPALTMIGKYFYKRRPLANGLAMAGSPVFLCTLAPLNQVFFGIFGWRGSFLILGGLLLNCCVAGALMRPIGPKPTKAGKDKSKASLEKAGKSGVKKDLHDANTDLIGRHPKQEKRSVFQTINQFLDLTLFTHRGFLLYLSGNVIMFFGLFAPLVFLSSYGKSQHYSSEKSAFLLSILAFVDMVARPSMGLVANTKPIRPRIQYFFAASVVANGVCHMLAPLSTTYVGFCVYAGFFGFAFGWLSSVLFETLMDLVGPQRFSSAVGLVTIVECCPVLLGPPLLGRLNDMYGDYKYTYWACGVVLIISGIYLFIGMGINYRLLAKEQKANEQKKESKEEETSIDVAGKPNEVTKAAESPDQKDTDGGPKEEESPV
Nature of the assay: pull-down of recombinant GST-CRBN with in vitro-translated 35S-labeled protein, autoradiography (FIG. 16B). The settings on record: remark: other sources report otherwise.

Assay [10] has as its target T2, MCT1 (monocarboxylate transporter 1), …. The assay can be described thus: Streptavidin-bead precipitation of Strep-Flag tagged CRBN from HEK 293T cells. Particulars: remark: other sources report otherwise.

B1: GST-tagged C-terminal intracellular domain of MCT1 (amino acids 444-500) (protein, human, UniProt P53985 444-500, looked up, not shown: a dimerising Fc or GST)
chain: NYRLLAKEQKANEQKKESKEEETSIDVAGKPNEVTKAAESPDQKDTDGGPKEEESPV
As for B1, the binding entry in assay [1], in assay [2] and in assay [3] was “binds” in each case.

B2: FLAG-MCT1, P53985 1-500 (protein, human, UniProt P53985 1-500, looked up, not shown: small tags and cut ends)
chain: MPPAVGGPVGYTPPDGGWGWAVVIGAFISIGFSYAFPKSITVFFKEIEGIFHATTSEVSWISSIMLAVMYGGGPISSILVNKYGSRIVMIVGGCLSGCGLIAASFCNTVQQLYVCIGVIGGLGLAFNLNPALTMIGKYFYKRRPLANGLAMAGSPVFLCTLAPLNQVFFGIFGWRGSFLILGGLLLNCCVAGALMRPIGPKPTKAGKDKSKASLEKAGKSGVKKDLHDANTDLIGRHPKQEKRSVFQTINQFLDLTLFTHRGFLLYLSGNVIMFFGLFAPLVFLSSYGKSQHYSSEKSAFLLSILAFVDMVARPSMGLVANTKPIRPRIQYFFAASVVANGVCHMLAPLSTTYVGFCVYAGFFGFAFGWLSSVLFETLMDLVGPQRFSSAVGLVTIVECCPVLLGPPLLGRLNDMYGDYKYTYWACGVVLIISGIYLFIGMGINYRLLAKEQKANEQKKESKEEETSIDVAGKPNEVTKAAESPDQKDTDGGPKEEESPV
Consider B2, for which the binding result in [4] and in assay [5] was “binds” in each case.

B3: Cereblon (CRBN), human, wild type, without tag (endogenous or expressed from plasmid), Q96SW2 1-442 (protein, UniProt Q96SW2 1-442, looked up)
chain: MAGEGDQQDAAHNMGNHLPLLPAESEEEDEMEVEDQDSKEAKKPNIINFDTSLPTSHTYLGADMEEFHGRTLHDDDSCQVIPVLPQVMMILIPGQTLPLQLFHPQEVSMVRNLIQKDRTFAVLAYSNVQEREAQFGTTAEIYAYREEQDFGIEIVKVKAIGRQRFKVLELRTQSDGIQQAKVQILPECVLPSTMSAVQLESLNKCQIFPSKPVSREDQCSYKWWQKYQKRKFHCANLTSWPRWLYSLYDAETLMDRIKKQLREWDENLKDDSLPSNPIDFSYRVAACLPIDDVLRIQLLKIGSAIQRLRCELDIMNKCTSLCCKQCQETEITTKNEIFSLSLCGPMAAYVNPHGYVHETLTVYKACNLNLIGRPSTEHSWFPGYAWTVAQCKICASHIGWKFTATKKDMSPQKFWGLTRSALLPTIPDTEDEISPDKVILCL
Turning to B3, the binding entry in assay [6], in [7] and in [8] was “binds” throughout.

B4: recombinant GST-CRBN (purified GST-Cereblon), Q96SW2 1-442 (protein, human, UniProt Q96SW2 1-442, looked up, not shown: a dimerising Fc or GST)
chain: MAGEGDQQDAAHNMGNHLPLLPAESEEEDEMEVEDQDSKEAKKPNIINFDTSLPTSHTYLGADMEEFHGRTLHDDDSCQVIPVLPQVMMILIPGQTLPLQLFHPQEVSMVRNLIQKDRTFAVLAYSNVQEREAQFGTTAEIYAYREEQDFGIEIVKVKAIGRQRFKVLELRTQSDGIQQAKVQILPECVLPSTMSAVQLESLNKCQIFPSKPVSREDQCSYKWWQKYQKRKFHCANLTSWPRWLYSLYDAETLMDRIKKQLREWDENLKDDSLPSNPIDFSYRVAACLPIDDVLRIQLLKIGSAIQRLRCELDIMNKCTSLCCKQCQETEITTKNEIFSLSLCGPMAAYVNPHGYVHETLTVYKACNLNLIGRPSTEHSWFPGYAWTVAQCKICASHIGWKFTATKKDMSPQKFWGLTRSALLPTIPDTEDEISPDKVILCL
modifications: here or on the partner: 35S-labeled
For B4, the binding result in [9] is “binds”.

B5: Strep-Flag tagged CRBN (CRBN-SF), Q96SW2 1-442 (protein, human, UniProt Q96SW2 1-442, looked up, not shown: small tags and cut ends)
chain: MAGEGDQQDAAHNMGNHLPLLPAESEEEDEMEVEDQDSKEAKKPNIINFDTSLPTSHTYLGADMEEFHGRTLHDDDSCQVIPVLPQVMMILIPGQTLPLQLFHPQEVSMVRNLIQKDRTFAVLAYSNVQEREAQFGTTAEIYAYREEQDFGIEIVKVKAIGRQRFKVLELRTQSDGIQQAKVQILPECVLPSTMSAVQLESLNKCQIFPSKPVSREDQCSYKWWQKYQKRKFHCANLTSWPRWLYSLYDAETLMDRIKKQLREWDENLKDDSLPSNPIDFSYRVAACLPIDDVLRIQLLKIGSAIQRLRCELDIMNKCTSLCCKQCQETEITTKNEIFSLSLCGPMAAYVNPHGYVHETLTVYKACNLNLIGRPSTEHSWFPGYAWTVAQCKICASHIGWKFTATKKDMSPQKFWGLTRSALLPTIPDTEDEISPDKVILCL
As for B5, the binding entry in assay [10] is “binds”.
